According to paper PMC6501013:
These are yes or no findings as the source states them, for the method shown. Binding seen in cells or lysates may run through a third protein. Some entries that bind do so weakly or less than the wild type.

Protein sequences, listed by entry. Tags and fused reporters are not part of them.
UniProt Q8CG47: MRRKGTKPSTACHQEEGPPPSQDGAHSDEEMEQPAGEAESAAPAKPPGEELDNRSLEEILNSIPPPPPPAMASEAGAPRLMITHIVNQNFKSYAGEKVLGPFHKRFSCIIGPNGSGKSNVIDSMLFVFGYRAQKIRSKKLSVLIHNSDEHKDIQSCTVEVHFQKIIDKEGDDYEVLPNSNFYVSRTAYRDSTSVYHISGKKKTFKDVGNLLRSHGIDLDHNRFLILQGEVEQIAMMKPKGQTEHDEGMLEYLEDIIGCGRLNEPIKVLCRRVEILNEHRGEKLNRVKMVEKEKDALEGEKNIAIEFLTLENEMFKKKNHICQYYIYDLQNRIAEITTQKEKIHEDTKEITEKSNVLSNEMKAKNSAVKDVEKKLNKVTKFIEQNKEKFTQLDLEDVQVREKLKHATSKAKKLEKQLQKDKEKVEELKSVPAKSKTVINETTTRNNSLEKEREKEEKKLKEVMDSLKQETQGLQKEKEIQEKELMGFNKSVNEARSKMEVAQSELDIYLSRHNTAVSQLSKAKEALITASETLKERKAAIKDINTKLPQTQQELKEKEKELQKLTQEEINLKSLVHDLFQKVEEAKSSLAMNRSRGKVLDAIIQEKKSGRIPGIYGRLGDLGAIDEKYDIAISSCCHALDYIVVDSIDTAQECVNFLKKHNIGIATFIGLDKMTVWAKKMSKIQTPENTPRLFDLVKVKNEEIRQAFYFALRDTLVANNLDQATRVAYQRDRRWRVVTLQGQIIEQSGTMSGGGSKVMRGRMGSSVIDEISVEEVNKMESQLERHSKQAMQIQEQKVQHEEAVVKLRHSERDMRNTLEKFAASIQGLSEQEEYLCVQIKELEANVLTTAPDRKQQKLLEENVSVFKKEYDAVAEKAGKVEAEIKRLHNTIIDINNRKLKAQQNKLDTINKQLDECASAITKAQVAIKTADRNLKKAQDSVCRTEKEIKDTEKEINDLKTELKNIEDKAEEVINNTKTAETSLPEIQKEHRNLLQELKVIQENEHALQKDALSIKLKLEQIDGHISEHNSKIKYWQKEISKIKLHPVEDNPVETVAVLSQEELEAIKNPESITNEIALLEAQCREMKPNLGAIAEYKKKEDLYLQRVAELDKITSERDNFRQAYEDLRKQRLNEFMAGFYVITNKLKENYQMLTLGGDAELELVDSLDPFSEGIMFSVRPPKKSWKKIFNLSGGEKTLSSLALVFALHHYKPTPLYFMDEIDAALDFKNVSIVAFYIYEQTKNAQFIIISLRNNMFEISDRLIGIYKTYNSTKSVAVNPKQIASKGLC
UniProt Q15021: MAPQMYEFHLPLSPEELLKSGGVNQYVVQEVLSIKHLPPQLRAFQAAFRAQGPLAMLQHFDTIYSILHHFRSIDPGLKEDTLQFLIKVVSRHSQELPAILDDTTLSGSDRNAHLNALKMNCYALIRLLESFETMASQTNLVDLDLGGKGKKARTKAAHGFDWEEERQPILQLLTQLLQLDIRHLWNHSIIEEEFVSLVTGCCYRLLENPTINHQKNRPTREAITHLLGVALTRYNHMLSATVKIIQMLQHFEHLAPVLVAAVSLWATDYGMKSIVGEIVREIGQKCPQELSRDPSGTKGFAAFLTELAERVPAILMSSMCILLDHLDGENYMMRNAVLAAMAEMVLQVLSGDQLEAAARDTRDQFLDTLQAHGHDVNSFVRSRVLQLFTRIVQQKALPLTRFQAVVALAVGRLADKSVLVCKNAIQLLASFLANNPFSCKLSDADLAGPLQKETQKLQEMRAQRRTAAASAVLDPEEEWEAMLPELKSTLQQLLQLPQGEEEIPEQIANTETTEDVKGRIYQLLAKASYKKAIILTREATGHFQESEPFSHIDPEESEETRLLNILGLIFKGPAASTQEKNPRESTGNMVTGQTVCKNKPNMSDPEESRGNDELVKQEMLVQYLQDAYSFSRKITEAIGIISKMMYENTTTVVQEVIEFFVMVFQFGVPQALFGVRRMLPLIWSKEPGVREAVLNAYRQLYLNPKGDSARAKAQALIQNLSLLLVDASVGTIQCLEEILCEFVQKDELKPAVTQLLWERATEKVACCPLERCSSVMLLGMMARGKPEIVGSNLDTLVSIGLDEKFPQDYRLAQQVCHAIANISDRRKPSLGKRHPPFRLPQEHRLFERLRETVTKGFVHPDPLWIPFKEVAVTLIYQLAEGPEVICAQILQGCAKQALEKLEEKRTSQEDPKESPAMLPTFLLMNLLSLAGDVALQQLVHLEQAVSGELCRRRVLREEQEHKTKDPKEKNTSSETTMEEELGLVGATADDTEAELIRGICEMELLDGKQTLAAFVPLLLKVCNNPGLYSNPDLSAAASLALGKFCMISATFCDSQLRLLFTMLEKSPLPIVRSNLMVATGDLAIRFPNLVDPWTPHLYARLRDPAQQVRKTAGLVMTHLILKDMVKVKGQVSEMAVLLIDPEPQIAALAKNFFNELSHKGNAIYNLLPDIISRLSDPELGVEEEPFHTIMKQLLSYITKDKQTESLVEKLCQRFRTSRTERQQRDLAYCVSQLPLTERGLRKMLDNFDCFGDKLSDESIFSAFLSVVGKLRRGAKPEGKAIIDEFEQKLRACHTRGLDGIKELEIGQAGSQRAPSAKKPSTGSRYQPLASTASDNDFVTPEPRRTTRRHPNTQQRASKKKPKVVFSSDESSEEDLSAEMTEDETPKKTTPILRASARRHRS

Target: GST‐SMC4 (not stated (mammalian; printed as mSMC4)) (UniProt Q8CG47)
Test: pull-down; five condensin I subunits co-expressed in insect cells (baculovirus); lysate on glutathione-agarose beads through GST-SMC4, released by proteolytic cleavage of GST; SDS-PAGE with CBB staining and immunoblotting

## CAP‐D2 (from UniProt Q15021 1-1401)
  binding: binds
